Assay results taken from the supplement of paper PMC12067093, “Discovery and optimisation of a covalent ligand for TRIM25 and its application to targeted protein ubiquitination” (Chemical Science, 2025).
Some of the results follow.

Amino acid sequences for entries named in this document (tags omitted). A change or cut given only in a name is not applied to a line headed by its entry.
UniProt P09525: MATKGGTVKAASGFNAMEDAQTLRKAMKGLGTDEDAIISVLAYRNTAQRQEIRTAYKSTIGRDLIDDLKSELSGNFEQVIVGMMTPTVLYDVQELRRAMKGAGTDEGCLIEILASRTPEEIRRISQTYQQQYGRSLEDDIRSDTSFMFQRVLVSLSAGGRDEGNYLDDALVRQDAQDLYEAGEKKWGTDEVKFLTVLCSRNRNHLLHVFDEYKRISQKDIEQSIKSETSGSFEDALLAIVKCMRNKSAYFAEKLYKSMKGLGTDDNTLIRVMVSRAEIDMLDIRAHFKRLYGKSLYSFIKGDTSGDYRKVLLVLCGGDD
UniProt P27695, whole entry, looked up: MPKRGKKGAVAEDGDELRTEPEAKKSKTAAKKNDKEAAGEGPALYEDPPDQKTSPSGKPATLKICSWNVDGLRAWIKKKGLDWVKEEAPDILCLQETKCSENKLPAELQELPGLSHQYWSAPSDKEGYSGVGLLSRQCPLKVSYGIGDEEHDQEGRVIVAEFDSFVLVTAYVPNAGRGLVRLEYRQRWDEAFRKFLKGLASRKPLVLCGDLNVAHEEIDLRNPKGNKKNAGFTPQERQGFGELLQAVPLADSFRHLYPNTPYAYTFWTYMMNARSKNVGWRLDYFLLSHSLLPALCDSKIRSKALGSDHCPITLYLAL
UniProt Q9Y587: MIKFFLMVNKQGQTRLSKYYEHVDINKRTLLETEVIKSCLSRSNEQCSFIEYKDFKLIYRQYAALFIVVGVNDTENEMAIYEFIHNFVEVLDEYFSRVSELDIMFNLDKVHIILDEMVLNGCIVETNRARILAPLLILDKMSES
UniProt O95782: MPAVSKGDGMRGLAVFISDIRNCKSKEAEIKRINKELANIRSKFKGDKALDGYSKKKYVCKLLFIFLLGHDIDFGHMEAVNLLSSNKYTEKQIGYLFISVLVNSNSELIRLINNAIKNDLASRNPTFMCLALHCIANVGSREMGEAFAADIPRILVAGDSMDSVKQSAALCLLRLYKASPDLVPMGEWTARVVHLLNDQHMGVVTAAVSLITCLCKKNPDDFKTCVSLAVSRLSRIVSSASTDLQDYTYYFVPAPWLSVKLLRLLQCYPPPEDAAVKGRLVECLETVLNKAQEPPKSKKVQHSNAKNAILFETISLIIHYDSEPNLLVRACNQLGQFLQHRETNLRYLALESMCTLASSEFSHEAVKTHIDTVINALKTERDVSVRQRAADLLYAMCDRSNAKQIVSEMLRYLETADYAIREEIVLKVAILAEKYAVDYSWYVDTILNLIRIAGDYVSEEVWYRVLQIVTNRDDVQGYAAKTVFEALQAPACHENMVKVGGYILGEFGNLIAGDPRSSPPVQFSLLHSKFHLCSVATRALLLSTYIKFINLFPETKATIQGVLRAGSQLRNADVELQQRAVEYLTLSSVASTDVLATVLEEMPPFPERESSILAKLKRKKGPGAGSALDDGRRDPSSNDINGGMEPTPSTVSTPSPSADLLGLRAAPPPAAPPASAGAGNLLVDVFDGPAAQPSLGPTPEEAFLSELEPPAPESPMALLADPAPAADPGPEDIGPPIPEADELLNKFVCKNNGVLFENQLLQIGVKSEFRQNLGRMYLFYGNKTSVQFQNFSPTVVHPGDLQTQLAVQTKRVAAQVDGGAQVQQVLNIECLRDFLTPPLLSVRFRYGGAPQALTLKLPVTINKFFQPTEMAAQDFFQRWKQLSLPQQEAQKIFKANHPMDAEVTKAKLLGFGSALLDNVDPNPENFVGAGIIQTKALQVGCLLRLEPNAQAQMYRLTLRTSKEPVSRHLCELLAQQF
UniProt Q7Z5R6: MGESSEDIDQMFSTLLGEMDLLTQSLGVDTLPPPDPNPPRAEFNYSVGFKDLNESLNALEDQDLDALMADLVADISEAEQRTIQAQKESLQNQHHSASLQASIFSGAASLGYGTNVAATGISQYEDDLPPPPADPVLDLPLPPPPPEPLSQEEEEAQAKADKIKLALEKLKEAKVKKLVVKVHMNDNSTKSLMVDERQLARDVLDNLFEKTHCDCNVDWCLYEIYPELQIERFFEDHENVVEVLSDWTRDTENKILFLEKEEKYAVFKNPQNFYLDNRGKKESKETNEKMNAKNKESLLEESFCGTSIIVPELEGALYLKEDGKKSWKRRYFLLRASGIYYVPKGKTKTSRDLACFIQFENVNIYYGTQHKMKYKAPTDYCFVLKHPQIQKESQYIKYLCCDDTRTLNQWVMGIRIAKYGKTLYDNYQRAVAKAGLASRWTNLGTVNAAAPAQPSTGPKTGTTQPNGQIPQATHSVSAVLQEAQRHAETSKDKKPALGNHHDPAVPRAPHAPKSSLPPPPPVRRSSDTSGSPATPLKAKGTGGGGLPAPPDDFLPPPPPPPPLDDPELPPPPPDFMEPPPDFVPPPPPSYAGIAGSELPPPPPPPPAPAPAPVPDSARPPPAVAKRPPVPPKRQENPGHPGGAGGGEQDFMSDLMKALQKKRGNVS
UniProt Q9NQW6: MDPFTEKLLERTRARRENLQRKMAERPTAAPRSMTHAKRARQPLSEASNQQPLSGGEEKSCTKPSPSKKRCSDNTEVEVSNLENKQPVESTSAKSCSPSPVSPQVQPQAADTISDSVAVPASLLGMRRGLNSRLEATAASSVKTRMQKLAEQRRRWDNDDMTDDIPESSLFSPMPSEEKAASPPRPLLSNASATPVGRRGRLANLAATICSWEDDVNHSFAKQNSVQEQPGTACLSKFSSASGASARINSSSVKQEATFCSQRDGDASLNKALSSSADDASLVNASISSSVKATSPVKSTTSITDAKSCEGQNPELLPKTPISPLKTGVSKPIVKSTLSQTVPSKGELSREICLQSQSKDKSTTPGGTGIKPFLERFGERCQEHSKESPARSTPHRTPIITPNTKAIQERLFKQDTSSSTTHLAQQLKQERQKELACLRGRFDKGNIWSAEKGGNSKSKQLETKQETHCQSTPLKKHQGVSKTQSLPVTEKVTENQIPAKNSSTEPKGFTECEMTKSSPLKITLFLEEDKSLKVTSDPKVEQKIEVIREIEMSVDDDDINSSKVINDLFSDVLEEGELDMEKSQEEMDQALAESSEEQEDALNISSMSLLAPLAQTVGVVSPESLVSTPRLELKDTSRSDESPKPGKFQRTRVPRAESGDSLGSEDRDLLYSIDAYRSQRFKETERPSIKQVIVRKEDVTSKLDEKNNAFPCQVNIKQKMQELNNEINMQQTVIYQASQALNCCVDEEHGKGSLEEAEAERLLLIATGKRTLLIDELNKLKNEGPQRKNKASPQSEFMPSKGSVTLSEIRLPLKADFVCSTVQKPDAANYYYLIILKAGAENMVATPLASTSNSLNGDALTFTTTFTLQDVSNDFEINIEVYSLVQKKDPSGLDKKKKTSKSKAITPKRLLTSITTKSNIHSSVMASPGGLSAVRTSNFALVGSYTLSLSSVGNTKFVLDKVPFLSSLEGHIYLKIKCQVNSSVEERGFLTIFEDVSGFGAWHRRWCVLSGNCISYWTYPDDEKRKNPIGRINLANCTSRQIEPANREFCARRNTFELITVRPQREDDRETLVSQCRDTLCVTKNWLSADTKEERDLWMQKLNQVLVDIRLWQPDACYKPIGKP
UniProt P08133: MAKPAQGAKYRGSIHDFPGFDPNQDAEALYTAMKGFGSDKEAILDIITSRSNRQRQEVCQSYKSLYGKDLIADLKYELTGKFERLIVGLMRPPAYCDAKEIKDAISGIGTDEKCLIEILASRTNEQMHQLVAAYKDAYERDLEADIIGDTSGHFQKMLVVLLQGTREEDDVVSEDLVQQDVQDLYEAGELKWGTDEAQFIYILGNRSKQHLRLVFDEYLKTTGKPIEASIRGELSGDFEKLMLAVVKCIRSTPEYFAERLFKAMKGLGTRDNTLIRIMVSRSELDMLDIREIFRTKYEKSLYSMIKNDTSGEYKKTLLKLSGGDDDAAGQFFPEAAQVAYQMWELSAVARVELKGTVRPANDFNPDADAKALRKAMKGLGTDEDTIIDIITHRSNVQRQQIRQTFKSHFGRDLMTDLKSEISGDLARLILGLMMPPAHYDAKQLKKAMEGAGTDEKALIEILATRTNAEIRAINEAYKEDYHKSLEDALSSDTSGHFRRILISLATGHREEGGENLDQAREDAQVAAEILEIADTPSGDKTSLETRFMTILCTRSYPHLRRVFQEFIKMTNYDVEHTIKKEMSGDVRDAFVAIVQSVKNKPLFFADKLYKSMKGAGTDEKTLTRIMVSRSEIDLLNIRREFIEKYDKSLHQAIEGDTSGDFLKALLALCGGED
UniProt Q06481, whole entry, looked up: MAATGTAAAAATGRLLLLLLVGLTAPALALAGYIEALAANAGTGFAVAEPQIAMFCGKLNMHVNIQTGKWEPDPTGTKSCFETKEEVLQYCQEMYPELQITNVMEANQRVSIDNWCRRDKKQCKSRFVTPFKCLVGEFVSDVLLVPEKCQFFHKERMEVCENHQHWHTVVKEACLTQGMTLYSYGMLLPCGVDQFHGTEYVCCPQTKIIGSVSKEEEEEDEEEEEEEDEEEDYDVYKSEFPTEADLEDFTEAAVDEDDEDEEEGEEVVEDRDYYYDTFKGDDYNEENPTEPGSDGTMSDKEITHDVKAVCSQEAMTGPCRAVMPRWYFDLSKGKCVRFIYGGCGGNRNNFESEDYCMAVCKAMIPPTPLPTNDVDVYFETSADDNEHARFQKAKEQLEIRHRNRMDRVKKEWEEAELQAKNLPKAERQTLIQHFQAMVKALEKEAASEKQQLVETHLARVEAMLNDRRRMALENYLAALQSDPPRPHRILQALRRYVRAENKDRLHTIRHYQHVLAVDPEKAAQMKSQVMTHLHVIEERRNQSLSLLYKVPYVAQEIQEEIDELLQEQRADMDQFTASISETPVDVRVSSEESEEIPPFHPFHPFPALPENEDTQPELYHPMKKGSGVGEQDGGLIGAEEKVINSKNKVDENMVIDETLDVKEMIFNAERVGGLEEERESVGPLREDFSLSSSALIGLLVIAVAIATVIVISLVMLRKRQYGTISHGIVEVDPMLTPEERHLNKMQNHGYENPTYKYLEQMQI
UniProt Q8NAG6: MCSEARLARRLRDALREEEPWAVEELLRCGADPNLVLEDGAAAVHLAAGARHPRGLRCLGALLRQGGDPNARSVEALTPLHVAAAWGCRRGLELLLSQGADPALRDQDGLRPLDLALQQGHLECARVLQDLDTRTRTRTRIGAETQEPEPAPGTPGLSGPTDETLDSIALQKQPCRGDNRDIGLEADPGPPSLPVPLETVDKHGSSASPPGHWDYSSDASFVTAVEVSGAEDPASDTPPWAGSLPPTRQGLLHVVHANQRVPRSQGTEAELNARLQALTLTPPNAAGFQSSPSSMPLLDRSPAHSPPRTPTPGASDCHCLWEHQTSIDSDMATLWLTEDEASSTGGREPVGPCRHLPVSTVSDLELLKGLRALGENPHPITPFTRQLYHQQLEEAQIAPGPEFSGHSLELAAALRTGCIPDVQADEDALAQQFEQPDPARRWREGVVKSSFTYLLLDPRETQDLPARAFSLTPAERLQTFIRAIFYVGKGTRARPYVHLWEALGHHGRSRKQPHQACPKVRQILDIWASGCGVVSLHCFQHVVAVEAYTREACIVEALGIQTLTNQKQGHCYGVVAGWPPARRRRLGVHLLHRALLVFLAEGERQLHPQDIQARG
UniProt P63010: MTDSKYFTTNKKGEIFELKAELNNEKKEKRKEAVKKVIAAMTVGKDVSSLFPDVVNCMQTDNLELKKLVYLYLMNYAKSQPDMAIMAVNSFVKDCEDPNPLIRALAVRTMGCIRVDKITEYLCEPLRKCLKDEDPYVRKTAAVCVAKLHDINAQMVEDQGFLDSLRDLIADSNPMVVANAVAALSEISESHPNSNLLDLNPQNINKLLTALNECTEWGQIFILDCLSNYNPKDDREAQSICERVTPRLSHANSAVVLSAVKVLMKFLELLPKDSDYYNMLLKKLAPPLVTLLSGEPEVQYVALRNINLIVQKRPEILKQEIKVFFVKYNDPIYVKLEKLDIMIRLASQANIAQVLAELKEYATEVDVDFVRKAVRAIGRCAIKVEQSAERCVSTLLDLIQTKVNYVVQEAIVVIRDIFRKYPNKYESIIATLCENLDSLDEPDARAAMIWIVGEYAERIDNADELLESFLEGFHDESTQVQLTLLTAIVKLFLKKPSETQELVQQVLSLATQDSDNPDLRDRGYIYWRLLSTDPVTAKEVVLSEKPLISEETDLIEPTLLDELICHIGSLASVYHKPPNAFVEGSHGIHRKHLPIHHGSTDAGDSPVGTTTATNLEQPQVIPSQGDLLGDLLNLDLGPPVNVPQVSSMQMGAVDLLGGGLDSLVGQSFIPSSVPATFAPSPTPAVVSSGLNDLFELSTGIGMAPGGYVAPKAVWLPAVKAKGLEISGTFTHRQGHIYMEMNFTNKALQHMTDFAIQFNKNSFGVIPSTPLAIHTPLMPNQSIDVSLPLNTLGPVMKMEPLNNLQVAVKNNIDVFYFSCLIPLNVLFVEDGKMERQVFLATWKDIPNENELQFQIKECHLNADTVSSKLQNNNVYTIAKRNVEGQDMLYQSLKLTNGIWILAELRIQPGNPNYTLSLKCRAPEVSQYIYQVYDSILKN

Compound: Cc1cc(ccc1-c1ccccc1)C(=O)N1CCCN(CC1)C(=O)CCl [compound 10]
Experiment: probe-labelled cysteine peptide fold change vs DMSO (competition) (log2 fold change); higher = less target engagement (more negative = stronger competition)
Conditions: THP-1, incubation time: 4 h
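Further: competitive profiling in live THP-1 cells: cysteine peptides tagged with an iodoacetamide desthiobiotin (IA-DTB) probe, intensity after compound treatment relative to DMSO-treated cells.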

| Target | probe-labelled cysteine peptide fold change (10 µM) | probe-labelled cysteine peptide fold change (50 µM) |
| --- | --- | --- |
| ANXA4_P09525_108_GAGTDEGCLIEILASR (UniProt P09525) | 0.0406 | 0.0244 |
| ANO6_Q4KMQ2_261_QSEDPSCPNER (UniProt Q4KMQ2) | -0.129 | 0.0969 |
| AP3D1_O14617_1117_SIQGHHVCLLVK (UniProt O14617) | 0.03 | -0.103 |
| APEX1_P27695_310_ALGSDHCPITLYLAL (UniProt P27695) | 0.0131 | -0.113 |
| ANKRD44_Q8N8A2_810_KFIGNPFTPLHCAIINDHGNCASLLLGAIDSSIVSCRDDK (UniProt Q8N8A2) | -0.251 | -0.692 |
| AP4S1_Q9Y587_122_VHIILDEMVLNGCIVETNR (UniProt Q9Y587) | -0.0316 | 0.117 |
| AP1B1_Q10567_57_DVSALFPDVVNCMQTDNLELK (UniProt Q10567) | 0.133 | -0.0282 |
| AP2A2_O94973_491_TVFEALQAPACHENLVK (UniProt O94973) | 0.0467 | -0.0424 |
| ANTXR1_Q9H6X2_257_VLCSFK (UniProt Q9H6X2) | -0.0829 | -0.125 |
| APAF1_O14727_675_FIATCSVDKK (UniProt O14727) | 0.277 | 0.113 |
| AP1G2_O75843_401_ADCASGILLAAER (UniProt O75843) | 0.141 | 0.148 |
| ANXA7_P20073_363_LGTDESCFNMILATR (UniProt P20073) | 0.0712 | -0.0528 |
| APOH_P02749_124_CTEEGK (UniProt P02749) | -0.557 | -0.288 |
| AP2A1_O95782_533_FHLCSVATR (UniProt O95782) | -0.326 | 0.254 |
| ANKRD52_Q8NB46_1001_NGLASVVQALLSHGATVLAVDEEGHTPALACAPNK (UniProt Q8NB46) | -0.348 | -0.552 |
| ANO6_Q4KMQ2_426_CTHVVINEITQEEER (UniProt Q4KMQ2) | -0.216 | -0.0038 |
| APBB1IP_Q7Z5R6_213_THCDCNVDWCLYEIYPELQIER (UniProt Q7Z5R6) | 0.126 | 0.161 |
| AP2A1_O95782_970_HLCELLAQQF (UniProt O95782) | 0.0634 | 0.18 |
| AP3D1_O14617_1089_ICFHHHFSVVER (UniProt O14617) | 0.239 | 0.176 |
| ANLN_Q9NQW6_353_EICLQSQSK (UniProt Q9NQW6) | -0.243 | -0.271 |
| APOBR_Q0VD83_149_AGSGACQDR (UniProt Q0VD83) | -0.37 | -0.408 |

| Target | probe-labelled cysteine peptide fold change (10 µM) | probe-labelled cysteine peptide fold change (50 µM) |
| --- | --- | --- |
| APEX1_P27695_208_KPLVLCGDLNVAHEEIDLRNPK (UniProt P27695) | -0.323 | -0.291 |
| AP5S1_Q9NUS5_27_VLYSCVFGAEK (UniProt Q9NUS5) | 0.0416 | -0.0255 |
| ANKRD50_Q9ULJ7_941_DIVELLFSHGADVNCK (UniProt Q9ULJ7) | 0.0799 | 0.113 |
| ANKRD16_Q6P6B7_32+43_EELQAAGGCPGPAGDTLLHCAAR (UniProt Q6P6B7) | -0.341 | -0.618 |
| AP3M1_Q9Y2T2_209_SGSTVFAEIQGVIDACIK (UniProt Q9Y2T2) | 0.35 | 0.226 |
| AP3D1_O14617_1103_VDSCASMYSR (UniProt O14617) | -0.132 | -0.249 |
| ANKRD46_Q86W74_61_GNVDICQLLHK (UniProt Q86W74) | 0.00597 | -0.0516 |
| ANXA7_P20073_298_CYQSEFGR (UniProt P20073) | 0.106 | 0.0364 |
| ANKRD17_O75179_1418_EVNQFPSDSECMR (UniProt O75179) | -0.0202 | 0.0276 |
| ANXA6_P08133_96_LIVGLMRPPAYCDAK (UniProt P08133) | 0.00975 | 0.25 |
| ANKZF1_Q9H8Y5_180_CVLGPHQDPPEEAELLLQNLQSR (UniProt Q9H8Y5) | -0.0318 | -0.122 |
| APBB1IP_Q7Z5R6_215_THCDCNVDWCLYEIYPELQIER (UniProt Q7Z5R6) | -0.0357 | 0.33 |
| APOBEC3B_Q9UH17_354_QGCPFQPWDGLEEHSQALSGR (UniProt Q9UH17) | -0.00779 | 0.0282 |
| AP3M1_Q9Y2T2_10_MIHSLFLINCSGDIFLEK (UniProt Q9Y2T2) | 0.166 | 0.0677 |
| APBB1IP_Q7Z5R6_401_YLCCDDTR (UniProt Q7Z5R6) | -0.318 | -0.372 |
| APMAP_Q9HDC9_149_TRDDEPVCGR (UniProt Q9HDC9) | 0.0268 | 0.291 |
| ANXA4_P09525_315_KVLLVLCGGDD (UniProt P09525) | -0.0611 | -0.661 |
| AP5Z1_O43299_546_LAPLHQLLQPMAGCAR (UniProt O43299) | 0.0763 | -0.0973 |
| AP2A1_O95782_129_NPTFMCLALHCIANVGSR (UniProt O95782) | 0.052 | 0.122 |
| APAF1_O14727_1083_DFVCHQGTVLSCDISHDATK (UniProt O14727) | 0.0692 | -0.041 |
| APOBEC3C_Q9NRW3_70+76_CFLSWFCDDILSPNTK (UniProt Q9NRW3) | -0.0487 | -0.237 |

| Target | probe-labelled cysteine peptide fold change (10 µM) | probe-labelled cysteine peptide fold change (50 µM) |
| --- | --- | --- |
| APAF1_O14727_662+663_AHEDEVLCCAFSTDDR (UniProt O14727) | 0.237 | 0.117 |
| APLP2_Q06481_80_SCFETK (UniProt Q06481) | -0.244 | -0.128 |
| ANKS1A_Q92625_75_GPNVNCVDSTGYTPLHHAALNGHK (UniProt Q92625) | 0.145 | -0.0279 |
| API5_Q9BZZ5_345_LQFSYVECLLYSFHQLGR (UniProt Q9BZZ5) | 0.555 | 0.966 |
| APLP2_Q06481_133_CLVGEFVSDVLLVPEK (UniProt Q06481) | -0.0811 | 0.164 |
| ANXA6_P08133_552_FMTILCTR (UniProt P08133) | 0.0107 | 0.0333 |
| ANKRD17_O75179_1336_FCELLIGR (UniProt O75179) | 0.282 | -0.0934 |
| AP3S1_Q92572_47_RDENVCNFLEGGLLIGGSDNK (UniProt Q92572) | -0.0668 | 0.142 |
| ANXA11_P50995_384_FNAVLCSR (UniProt P50995) | -0.177 | -0.173 |
| APOBR_Q0VD83_844_VEAEESAGAEDSCGLDPAGSQTAR (UniProt Q0VD83) | -0.0157 | -0.0217 |
| ANO6_Q4KMQ2_250_AAFPLHDCK (UniProt Q4KMQ2) | -0.187 | -0.184 |
| ANKMY2_Q8IV38_205_VMDLICEK (UniProt Q8IV38) | -0.173 | -0.106 |
| APEH_P13798_30_QPALSAACLGPEVTTQYGGQYR (UniProt P13798) | 0.0938 | 0.25 |
| AP1G1_O43747_160_AALCAVHVIR (UniProt O43747) | 0.0436 | 0.00344 |
| AP3D1_O14617_935_MTCDIR (UniProt O14617) | -0.00118 | 0.0604 |
| ANPEP_P15144_834_AALACSK (UniProt P15144) | -0.154 | 0.377 |
| ANKRD28_O15084_701_GAVTGHEECVDALLQHGAK (UniProt O15084) | -0.144 | -0.418 |
| APAF1_O14727_258_AFDSQCQILLTTR (UniProt O14727) | 0.213 | 0.0876 |
| ANKLE1_Q8NAG6_29_CGADPNLVLEDGAAAVHLAAGAR (UniProt Q8NAG6) | -0.0884 | 0.239 |
| ANXA1_P04083_263_CLTAIVK (UniProt P04083) | 0.079 | -0.0354 |
| ANLN_Q9NQW6_469_QETHCQSTPLK (UniProt Q9NQW6) | 0.055 | 0.0109 |

| Target | probe-labelled cysteine peptide fold change (10 µM) | probe-labelled cysteine peptide fold change (50 µM) |
| --- | --- | --- |
| ANO6_Q4KMQ2_134_VHAPWEVLCTYAEIMHIK (UniProt Q4KMQ2) | 0.0082 | -0.18 |
| AP4B1_Q9Y6B7_298_ELCFVALCHVR (UniProt Q9Y6B7) | -0.0896 | 0.184 |
| AP1G1_O43747_70_LLYMHMLGYPAHFGQLECLK (UniProt O43747) | 0.00199 | 0.107 |
| AP3D1_O14617_479_NGICEVLYAAAWICGEFSEHLQEPHHTLEAMLRPR (UniProt O14617) | -0.157 | 0.229 |
| APAF1_O14727_203_LQNLCTR (UniProt O14727) | 0.118 | 0.115 |
| ANKLE1_Q8NAG6_517_KQPHQACPK (UniProt Q8NAG6) | -0.0363 | -0.377 |
| ANKRD17_O75179_714_GGHTSVVCYLLDYPNNLLSAPPPDVTQLTPPSHDLNR (UniProt O75179) | 0.104 | 0.197 |
| AP3B1_O00203_507_ASILWLIGENCER (UniProt O00203) | 0.00997 | 0.184 |
| ANKRD46_Q86W74_85_FGADLLATDYQGNTALHLCGHVDTIQFLVSNGLK (UniProt Q86W74) | 0.281 | 0.317 |
| ANP32A_P39687_87_CPNLTHLNLSGNK (UniProt P39687) | 0.0778 | 0.0507 |
| ANXA7_P20073_413_TILQCALNRPAFFAER (UniProt P20073) | 0.0808 | 0.0931 |
| AP2B1_P63010_144_TAAVCVAK (UniProt P63010) | 0.012 | -0.112 |
| ANKRD16_Q6P6B7_43_EELQAAGGCPGPAGDTLLHCAAR (UniProt Q6P6B7) | 0.053 | -0.0254 |
| ANKRD17_O75179_210_LTSSVSCALDEAAAALTR (UniProt O75179) | 0.213 | 0.198 |
| APAF1_O14727_8_NCLLQHR (UniProt O14727) | 0.0229 | -0.322 |
| ANKRD54_Q6NXT1_265_LDDLCTR (UniProt Q6NXT1) | -0.0526 | -0.562 |
| AP2B1_P63010_95_DCEDPNPLIR (UniProt P63010) | -0.00825 | 0.246 |
| AP3D1_O14617_348_DLILQCLDDKDESIR (UniProt O14617) | -0.112 | 0.0234 |
| AP3D1_O14617_1133_CSDSTLLSNLLEEMK (UniProt O14617) | 0.0262 | 0.177 |
| APOH_P02749_345_TDASDVKPC (UniProt P02749) | -0.931 | -0.957 |
| APOBEC3G_Q9HC16_261_HAELCFLDVIPFWK (UniProt Q9HC16) | -0.0342 | -0.0566 |

Looked up one by one from the list above:

| Target | probe-labelled cysteine peptide fold change (10 µM) | probe-labelled cysteine peptide fold change (50 µM) |
| --- | --- | --- |
| ANXA7_P20073_413_TILQCALNRPAFFAER (UniProt P20073) | 0.0808 | 0.0931 |
| AP3D1_O14617_1089_ICFHHHFSVVER (UniProt O14617) | 0.239 | 0.176 |
| ANLN_Q9NQW6_469_QETHCQSTPLK (UniProt Q9NQW6) | 0.055 | 0.0109 |
| ANO6_Q4KMQ2_134_VHAPWEVLCTYAEIMHIK (UniProt Q4KMQ2) | 0.0082 | -0.18 |
| AP2A1_O95782_129_NPTFMCLALHCIANVGSR (UniProt O95782) | 0.052 | 0.122 |
